Reference: paper doi:10.1101/2021.03.28.437395
No constants are given. Whether binding was seen depends on the method and setting. Some entries that bind do so weakly or less than the wild type.

Chains of the proteins cited; added tags and fusions are not shown.
UniProt Q9XEB5, whole entry: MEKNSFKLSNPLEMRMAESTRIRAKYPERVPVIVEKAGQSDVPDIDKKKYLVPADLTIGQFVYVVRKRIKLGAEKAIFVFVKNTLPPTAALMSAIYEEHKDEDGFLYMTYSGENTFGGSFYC

Assays:
Assay in all cases: two-hybrid
ATG8e = target: T1, ATG8e (UniProt Q8S926)
T1 sequence: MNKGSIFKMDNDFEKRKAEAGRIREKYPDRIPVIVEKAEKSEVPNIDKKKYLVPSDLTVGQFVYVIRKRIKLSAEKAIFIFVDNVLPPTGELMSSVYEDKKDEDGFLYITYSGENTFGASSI

ATG8b = ATG8b (UniProt Q9XEB5)
ATG8d = target: T2, ATG8d (UniProt Q9SL04)
T2 sequence: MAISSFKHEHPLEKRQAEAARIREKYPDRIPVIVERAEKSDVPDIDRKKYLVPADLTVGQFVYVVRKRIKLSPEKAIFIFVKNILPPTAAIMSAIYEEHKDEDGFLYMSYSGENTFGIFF

ATG8f = target: T3, ATG8f (UniProt Q8VYK7)
T3 sequence: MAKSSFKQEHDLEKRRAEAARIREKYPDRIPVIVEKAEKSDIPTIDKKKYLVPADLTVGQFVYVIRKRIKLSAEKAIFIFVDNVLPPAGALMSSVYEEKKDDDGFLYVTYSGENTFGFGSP

ATG8c = target: T4, ATG8c (UniProt Q8S927)
T4 sequence: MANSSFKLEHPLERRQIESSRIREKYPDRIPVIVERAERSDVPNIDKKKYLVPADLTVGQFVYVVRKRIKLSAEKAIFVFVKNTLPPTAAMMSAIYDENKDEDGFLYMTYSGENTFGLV

ATG8a = target: T5, ATG8a (UniProt Q8LEM4)
T5 sequence: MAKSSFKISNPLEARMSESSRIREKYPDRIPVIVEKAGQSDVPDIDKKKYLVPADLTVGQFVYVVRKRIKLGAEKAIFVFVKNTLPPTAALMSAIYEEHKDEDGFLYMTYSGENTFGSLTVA

Measured: binding

B1: Turnip crinkle virus (TCV) capsid protein P38 (protein, UniProt P06663 1-351)
chain: MENDPRVRKFASDGAQWAIKWQKKGWSTLTSRQKQTARAAMGIKLSPVAQPVQKVTRLSAPVALAYREVSTQPRVSTARDGITRSGSELITTLKKNTDTEPKYTTAVLNPSEPGTFNQLIKEAAQYEKYRFTSLRFRYSPMSPSTTGGKVALAFDRDAAKPPPNDLASLYNIEGCVSSVPWTGFILTVPTDSTDRFVADGISDPKLVDFGKLIMATYGQGANDAAQLGEVRVEYTVQLKNRTGSTSDAQIGDFAGVKDGPRLVSWSKTKGTAGWEHDCHFLGTGNFSLTLFYEKAPVSGLENADASDFSVLGEAAAGSVQWAGVKVAERGQGVKMVTTEEQPKGKWQALRI
binds: all assays above
